Values from PubChem BioAssay AID1671195 (Yale University, 2021)
Assay: 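Genes whose knockdown alters LDL uptake in liver cancer cells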 (primary screen). Cell system: human Huh7 hepatoma cells. Reagents: siRNA pool against human genes, 18 nM. Timing: about 2 to 2.5 days of knockdown, then 8 h LDL uptake. Conditions: DiI-labelled LDL at 30 µg/ml for 8 h, in lipoprotein-deficient serum medium. Measured: 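Fluorescent LDL signal imaged in cells, scaled to the plate median, robust z-score for each replicate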. Scale: robust z-score: higher = more LDL uptake after knockdown. Rule for the call: 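Active when two or more replicates show a robust z-score above 2 or below -2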.
Here is one part, drawn at random, of about 22,000 deposited reagents. About 1,510 of all reagents (6.9%) count as active. 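Active includes knockdowns raising or lowering LDL uptake; positive z-scores mean more uptake, negative mean less.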 Unmarked entries are inactive. The numbers tell different reagents against one gene apart.

no.	target gene	reagent no.	robust z-score, replicate 1	robust z-score, replicate 2	robust z-score, replicate 3
1	GAS2L1 (growth arrest specific 2 like 1)	1	0.365	-0.805	1.48
2	LOC388563 (retired record)	1	-1.51	-1.21	-1.29
3	HADH (hydroxyacyl-CoA dehydrogenase)	1	0.75	1.24	1.5
4	AKR1C3 (aldo-keto reductase family 1 member C3)	1	-0.141	-0.0943	-0.362
5	KIF27 (kinesin family member 27)	1	0.866	1.36	0.112
6	AGBL2 (AGBL carboxypeptidase 2)	1	-1.38	-0.896	-0.827
7	ZNF785 (zinc finger protein 785)	1	-1.35	-0.648	-1.53
8	WDR74 (WD repeat domain 74)	1	-0.297	0.964	0.447
9	FSD1L (fibronectin type III and SPRY domain containing 1 like)	1	1.93	0.855	3.15
10	FSD1L (fibronectin type III and SPRY domain containing 1 like)	2	1.02	0.786	0.638
11	ALAD (aminolevulinate dehydratase)	1	-0.294	-0.42	-0.322
12	DEGS2 (delta 4-desaturase, sphingolipid 2)	1	-1.08	-0.122	-0.299
13	LOC440134 (retired record)	1	0.829	0.872	0.599
14	HYAL2 (hyaluronidase 2)	1	0.815	0.907	1.45
15	KPNA2P1 (karyopherin subunit alpha 2 pseudogene 1)	1	-0.524	-0.453	-0.416
16	GSTP1 (glutathione S-transferase pi 1)	1	1.71	2.24	1.28
17	ELAPOR2	1	-1.51	-1.31	-0.854
18	DAZAP2 (DAZ associated protein 2)	1	0.283	-0.24	-0.478
19	SLC25A37	1	2.58	0.425	-1.98
20	LOC153959 (retired record)	1	0.622	-0.0583	0.385
21	RNF150 (ring finger protein 150)	1	4 (active)	3.37	4.11
22	SMPD3 (sphingomyelin phosphodiesterase 3)	1	1.27	0.597	0.339
23	LOC442123 (retired record)	1	-1.52	-1.65	-0.666
24	ASPG (asparaginase)	1	-0.0407	-0.23	-0.0927

Records above marked active (1):
target gene	reagent no.	robust z-score, replicate 1	robust z-score, replicate 2	robust z-score, replicate 3
RNF150 (ring finger protein 150)	1	4 (active)	3.37	4.11

The listing continues.
no.	target gene	reagent no.	robust z-score, replicate 1	robust z-score, replicate 2	robust z-score, replicate 3
25	ATF3 (activating transcription factor 3)	1	-0.236	0.152	-0.0483
26	GFRA3 (GDNF family receptor alpha 3)	1	0.226	1.01	1.14
27	LOC442430 (retired record)	1	2.11	1.85	1.96
28	SEL1L2 (SEL1L2 adaptor subunit of SYVN1 ubiquitin ligase)	1	0.563	0.791	0.414
29	CAMK2D (calcium/calmodulin dependent protein kinase II delta)	1	-1.55	-1.92	-1.93
30	TMEM88 (transmembrane protein 88)	1	1.81	0.0573	0.343
31	KCNH3 (potassium voltage-gated channel subfamily H member 3)	1	-1.97	-1.86	-1.84
32	FRG2C (FSHD region gene 2 family member C)	1	-0.653	-0.675	-0.512
33	LOC729897	1	1.96	0.616	1.44
34	TOB2 (transducer of ERBB2, 2)	1	-0.249	0.522	-1.72
35	AOC3 (amine oxidase copper containing 3)	1	0.576	0.701	1.28
36	CCAR1 (cell division cycle and apoptosis regulator 1)	1	-1.34	-1.14	-0.883
37	UBE4B (ubiquitination factor E4B)	1	1.09	0.415	-0.0881
38	ZNF596 (zinc finger protein 596)	1	-1.37	-1.36	-0.737
39	PCSK4 (proprotein convertase subtilisin/kexin type 4)	1	0.892	-0.16	0.291
40	STK25 (serine/threonine kinase 25)	1	-1.35	-1.47	-1.12
41	LIPJ (lipase family member J)	1	-2.86	-0.0929	-0.0482
42	PPY (pancreatic polypeptide)	1	-0.402	2.29	-0.395
43	SYNGR1 (synaptogyrin 1)	1	-1.35	-1.03	-1.39
44	LOC440722 (retired record)	1	-0.301	1.57	-0.182
45	GID8 (GID complex subunit 8 homolog)	1	0.00542	-0.555	-1.86
46	CIMAP1C (ciliary microtubule associated protein 1C)	1	-0.136	0.855	-0.552
